PubChem BioAssay AID602196, INSERM | 2012
Test: 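Genes whose knock-down alters cisplatin killing of lung cancer cells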. System: human A549 lung cancer cells. Reagent: siRNA pair against human genes. Time to read-out: 48 h transfection before cisplatin; time from cisplatin to read-out not stated. Treatment: cisplatin at a dose killing half of control-siRNA cells; exact dose and duration not given. Measurement: 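Cisplatin cell death as a shift from the 50% death seen with control siRNA; siRNAs toxic or growth-blocking alone scored 0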. Direction: two-siRNA summed score (-2 to +2): higher = both siRNAs protect from cisplatin killing; -2 means both sensitise; mean protection from cisplatin (shift in death) and protection from cisplatin (shift in death), siRNA C and protection from cisplatin (shift in death), siRNA D: higher = protection from cisplatin killing. Active means: 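Each siRNA scores 0 if harmful alone by LDH or WST-1, otherwise +1 if it reduces and -1 if it increases cisplatin killing; a gene is active when both siRNAs agree (sum +2 or -2)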. Calls: active = both siRNAs shift cisplatin killing the same way; inactive = no consistent shift, or siRNA harmful alone.
The whole screen tested about 23,000 reagents; below is a part drawn at random. 455 of all reagents (2%) count as active. 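Active includes both protection and sensitisation; some change values fall well beyond the stated -50 to +50 range.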 Entries without a mark were called inactive. Not stated in the record: the amount of reagent.

gene | PubChem SID | two-siRNA summed score (-2 to +2) | mean protection from cisplatin (shift in death) (%) | protection from cisplatin (shift in death), siRNA C (%) | protection from cisplatin (shift in death), siRNA D (%)
GPN2 | SID131508339 | 0 | 0.9 | 2.6 | -0.7
ZNF236 | SID131521189 | 1 | 12.5 | 15.7 | 9.4
CYFIP2 | SID131505131 | 0 | -3.7 | 0.8 | -8.2
SAGE1 | SID131501806 | -1 | -7.3 | 3.8 | -18.3
DIPK1C | SID131502380 | -1 | -2.8 | 12.4 | -18.1
RMI1 | SID131515782 | 0 | 9.7 | 4.1 | 15.3
LOC400053 | SID131520246 | 1 | 9.2 | 17 | 1.4
CRLF3 | SID131500566 | -1 | -21.2 | 1.6 | -44
CPO | SID131520068 | 1 | 8.5 | 4.7 | 12.3
LOC138972 | SID131505085 | 0 | -3.8 | -0.2 | -7.4
LOC387854 | SID131519435 | 1 | 5.6 | -20.2 | 31.4
INTS14 | SID131506790 | 0 | -1 | 1.4 | -3.4
ECHDC2 | SID131501289 | -1 | -10.7 | -15.3 | -6.2
LOC345630 | SID131517761 | 0 | 14.7 | 18 | 11.4
RNF144B | SID131504924 | 0 | -4.2 | 0.5 | -8.8
MGC9515 | SID131515552 | 0 | 9.3 | 21.9 | -3.2
LOC440479 | SID131516870 | 0 | 11.8 | 9.9 | 13.8
HSD17B14 | SID131500447 | -1 | -29.1 | -54 | -4.2
NUDCD3 | SID131510216 | 0 | 3 | 5.8 | 0.2
ASCL1 | SID131518877 | 0 | 35.6 | 71.8 | -0.6
LOC254938 | SID131514166 | 0 | 7.5 | 11 | 4
AVEN | SID131520062 | 1 | 8.5 | 1 | 16.1
C2CD4A | SID131508414 | 0 | 1 | 3.7 | -1.6

Looked up above.
For “mean protection from cisplatin (shift in death) (%)”, NUDCD3 [SID131510216] shows 3
CYFIP2 [SID131505131], protection from cisplatin (shift in death), siRNA C (%) = 0.8
